Reference: the supplement of paper PMC12823440, “Inhibitors supercharge kinase turnover through native proteolytic circuits” (Nature, 2025)
Where a name gives a salt, the structure may show the parent alone. This is one part of the list. Hit calls seldom repeat between salt and free forms of one compound.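 Kinases, fused to nanoluciferase, were expressed in K562 cells; luminescence was measured every 4 h from 2 to 18 h as percent of control (DMSO = 100%, positive control = 0%). A time point is decreased if signal falls significantly (2 sigma). Hits were called by the authors by a rule that is not shown; the count of time points alone does not decide it.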

Amino acid sequences for entries named in this document (tags omitted). A change or cut given only in a name is not applied to a line headed by its entry.
UniProt Q96GD4, whole entry: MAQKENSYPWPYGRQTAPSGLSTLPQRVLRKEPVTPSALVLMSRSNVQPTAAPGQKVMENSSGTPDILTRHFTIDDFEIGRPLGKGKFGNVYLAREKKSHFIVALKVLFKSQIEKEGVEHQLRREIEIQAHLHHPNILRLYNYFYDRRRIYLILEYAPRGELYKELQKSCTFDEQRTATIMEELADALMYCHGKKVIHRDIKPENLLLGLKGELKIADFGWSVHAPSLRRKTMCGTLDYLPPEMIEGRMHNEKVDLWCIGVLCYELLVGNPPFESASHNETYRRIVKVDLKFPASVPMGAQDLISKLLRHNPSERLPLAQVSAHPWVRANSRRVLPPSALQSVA
UniProt Q9UQB9: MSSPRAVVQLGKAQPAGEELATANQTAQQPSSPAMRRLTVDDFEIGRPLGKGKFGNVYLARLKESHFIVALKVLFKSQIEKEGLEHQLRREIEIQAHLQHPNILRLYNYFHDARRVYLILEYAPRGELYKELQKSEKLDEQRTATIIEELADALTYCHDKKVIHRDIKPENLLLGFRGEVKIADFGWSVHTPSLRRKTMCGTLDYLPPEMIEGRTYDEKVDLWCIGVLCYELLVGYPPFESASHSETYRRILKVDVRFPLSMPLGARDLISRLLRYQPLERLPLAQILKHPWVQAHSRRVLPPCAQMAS

biological target: AURKB (UniProt Q96GD4); assay: number of time points (of 5) at which kinase-Nluc abundance scored as decreased, DMSO-normalised (count); higher = more persistent destabilization; settings: K562; 2-18 h

Structure (SMILES)	number of time points
Cc1cc2cc(Nc3ccnc(Nc4ccc5[nH]c(C)cc5c4)n3)ccc2[nH]1 (2.5 µM)	0
Cc1cc(Nc2cc(Cl)nc(Oc3ccc([N+](=O)[O-])cc3)n2)n[nH]1 [Autophinib] (2.5 µM)	0
Fc1ccc(-c2nc(-c3ccccc3F)[nH]c2-c2ccncc2)cc1 (2.5 µM)	0
OC(COc1ccc(C(F)(F)F)cc1)CN(Cc1ccccc1)Cc1ccccc1 (stereo unspecified) (2.5 µM)	0
COc1ccc2[nH]cc(/C=C3\C(=O)Nc4ccc(NC(=O)CCN5CCCCC5)cc43)c2c1 (2.5 µM)	0
CS(=O)(=O)c1ccc(-c2noc(C(F)(F)F)c2-c2ccccc2)cc1 (10 µM)	0
COCCO[C@@H]1[C@H](O)[C@@H](CO)O[C@H]1n1cnc2c(=O)[nH]c(N)nc21 [2′-O-(2-Methoxyethyl)guanosine] (10 µM)	0
Cn1cnc(-c2cc3nccc(Oc4ccc(NC(=S)NC(=O)Cc5ccccc5)cc4F)c3s2)c1 [MGCD-265 analog] (10 µM)	0
Cc1noc(C)c1-c1ccc(-c2cc(C(N)=O)c(NC(N)=O)s2)c(O[C@H]2CCNC2)c1 (10 µM)	0
Cc1c(CN2CCN(S(C)(=O)=O)CC2)sc2c(N3CCOCC3)nc(-c3cnc(N)nc3)nc12 (2.5 µM)	0
CC(C)CN(CC(=O)N1CCN(CC(OCc2ccc3ccccc3c2)c2ccc(Cl)cc2Cl)CC1)CC(C)C (stereo unspecified) [LYN-1604 (dihydrochloride)] (2.5 µM)	0
CC/C=C\C/C=C\C/C=C\CCCCCCCC(=O)O [α-Linolenic acid] (10 µM)	0
Nc1ncnc2c1c(-c1ccc(Oc3ccccc3)cc1)nn2C1CCNCC1 [N-piperidine Ibrutinib (hydrochloride)] (10 µM)	0
CC(C)NC(=O)N1CC[C@H](NC2=Nc3cc(F)ccc3N(CC(F)F)c3ccc(Cl)cc32)C1 (10 µM)	0
O=C(Nc1cc(Oc2cc(F)c(NC(=O)C3(C(=O)Nc4ccc(F)cc4)CC3)cc2F)ccn1)C1CC1 [Altiratinib] (10 µM)	0
COCCOc1ccc(-c2cn(-c3ccccc3)c3nc[nH]c(=O)c23)cc1 (10 µM)	0
Cc1ccc2nc(NC(=O)CSc3nc4c(c(=O)n3-c3ccccc3)SCC4)sc2c1 (2 µM)	0
C[C@]1(O)CCC[C@@H]1n1c(=O)c(C(F)F)cc2cnc(NC3CCN(S(C)(=O)=O)CC3)nc21 (10 µM)	0
NC1(Cc2ccc(Cl)cc2)CCN(c2ncnc3[nH]ccc23)CC1 (10 µM)	0
O=C(O)c1cc(O)ccc1O [2,5-Dihydroxybenzoic acid] (10 µM)	0
C=C(CCC=C(C)C)[C@H]1CC[C@]2(C)[C@@H]1[C@H](O)C[C@@H]1[C@@]3(C)CC[C@H](O[C@@H]4O[C@H](CO)[C@@H](O)[C@H](O)[C@H]4O[C@@H]4O[C@H](CO)[C@@H](O)[C@H](O)[C@H]4O)C(C)(C)[C@@H]3CC[C@]12C [Ginsenoside Rk1] (10 µM)	0
CC(C)=CC[C@H](O)C1=CC(=O)c2c(O)ccc(O)c2C1=O [(-)-Alkannin] (2.5 µM)	0
N#Cc1c(-c2ccccc2)cc(-c2cc(Br)ccc2O)[nH]c1=O (10 µM)	0
CCn1c(-c2nonc2N)nc2cnc(Oc3cccc(NC(=O)c4ccc(OCCN5CCOCC5)cc4)c3)cc21 (10 µM)	0
CO[C@H]1C[C@@H]2CC[C@@H](C)[C@@](O)(O2)C(=O)C(=O)N2CCCC[C@H]2C(=O)O[C@H]([C@H](C)C[C@@H]2CC[C@@H](O)[C@H](OC)C2)CC(=O)[C@H](C)/C=C(\C)[C@@H](O)[C@@H](OC)C(=O)[C@H](C)C[C@H](C)/C=C/C=C/C=C/1C [Rapamycin] (10 µM)	0
CC(C)=CCC[C@](C)(O[C@@H]1O[C@H](CO)[C@@H](O)[C@H](O)[C@H]1O)[C@H]1CC[C@]2(C)[C@@H]1[C@H](O)C[C@@H]1[C@@]3(C)CC[C@H](O)C(C)(C)[C@@H]3[C@@H](O[C@@H]3O[C@H](CO)[C@@H](O)[C@H](O)[C@H]3O[C@@H]3O[C@@H](C)[C@H](O)[C@@H](O)[C@H]3O)C[C@]12C [Ginsenoside Re] (10 µM)	0
Cn1c(=O)c(F)c(Nc2ccc(I)cc2F)c2c(=O)n(C[C@@H](O)CO)cnc21 (10 µM)	0

biological target: AURKC (UniProt Q9UQB9); assay: as above; settings: K562; 2-18 h

Structure (SMILES)	number of time points
NCc1ccc(Nc2ncc(F)c(Nc3ccccc3)n2)cc1 (10 µM)	0
C=C(C)C(=O)Nc1cccc(-c2ncnc3[nH]cc(C(=O)OCC)c23)c1 (10 µM)	0
CCOc1cc(C(=O)N2CCC(N3CCN(C)CC3)CC2)ccc1Nc1ncc2c(n1)N(C1CCCC1)c1ccccc1C(=O)N2C (10 µM)	0
CCOc1ccc(C(=O)Nc2ncc([N+](=O)[O-])s2)cc1 (10 µM)	0
CNC(=O)Nc1ccc(-c2cc(-c3ccnc(Nc4ccc(C)c(S(=O)(=O)N(C)C)c4)n3)ccn2)cc1 [hSMG-1 inhibitor 11e] (2.5 µM)	0
CNC(=O)c1ccc(-c2cnc3cnc(C(=O)N(C)c4ccc(Cl)cc4)cn23)cc1 (2.5 µM)	0
COc1cccc(-n2c(=O)[nH]c3cc(Cl)n(-c4ccc(-c5cccc(OC)c5O)cc4)c3c2=O)c1 (2.5 µM)	0
O=C(Nc1cccnc1)c1cc(C(=O)c2c(F)cccc2Br)c[nH]1 (10 µM)	0
CN(CC(=O)N(Cc1ccc(C2CCCCC2)cc1)c1ccc(C(=O)O)cc1)S(=O)(=O)c1c(F)c(F)c(F)c(F)c1F (2.5 µM)	0
COc1c(NC(=O)C(=O)c2ccc(OCCN3CCOCC3)c3ccccc23)cc(C(C)(C)C)cc1NS(C)(=O)=O (2.5 µM)	0
CC(C)CC1(O)CCN(C(=O)c2ccc(NS(=O)(=O)c3cccc4nccnc34)cc2)CC1 (10 µM)	0
O=C(/C=C/c1ccc(O)c(O)c1)c1ccc(O[C@@H]2O[C@H](CO)[C@@H](O)[C@H](O)[C@H]2O)c(O)c1O [Marein] (10 µM)	0
Cc1cc2cc(Nc3ccnc(Nc4ccc5[nH]c(C)cc5c4)n3)ccc2[nH]1 (2.5 µM)	0
Cc1cc(Nc2cc(Cl)nc(Oc3ccc([N+](=O)[O-])cc3)n2)n[nH]1 [Autophinib] (2.5 µM)	0
Fc1ccc(-c2nc(-c3ccccc3F)[nH]c2-c2ccncc2)cc1 (2.5 µM)	0
OC(COc1ccc(C(F)(F)F)cc1)CN(Cc1ccccc1)Cc1ccccc1 (stereo unspecified) (2.5 µM)	0
COc1ccc2[nH]cc(/C=C3\C(=O)Nc4ccc(NC(=O)CCN5CCCCC5)cc43)c2c1 (2.5 µM)	0
CS(=O)(=O)c1ccc(-c2noc(C(F)(F)F)c2-c2ccccc2)cc1 (10 µM)	0
COCCO[C@@H]1[C@H](O)[C@@H](CO)O[C@H]1n1cnc2c(=O)[nH]c(N)nc21 [2′-O-(2-Methoxyethyl)guanosine] (10 µM)	0
Cn1cnc(-c2cc3nccc(Oc4ccc(NC(=S)NC(=O)Cc5ccccc5)cc4F)c3s2)c1 [MGCD-265 analog] (10 µM)	3

Structure (SMILES)	number of time points
Cc1noc(C)c1-c1ccc(-c2cc(C(N)=O)c(NC(N)=O)s2)c(O[C@H]2CCNC2)c1 (10 µM)	0
Cc1c(CN2CCN(S(C)(=O)=O)CC2)sc2c(N3CCOCC3)nc(-c3cnc(N)nc3)nc12 (2.5 µM)	0
CC(C)CN(CC(=O)N1CCN(CC(OCc2ccc3ccccc3c2)c2ccc(Cl)cc2Cl)CC1)CC(C)C (stereo unspecified) [LYN-1604 (dihydrochloride)] (2.5 µM)	0
CC/C=C\C/C=C\C/C=C\CCCCCCCC(=O)O [α-Linolenic acid] (10 µM)	0
Nc1ncnc2c1c(-c1ccc(Oc3ccccc3)cc1)nn2C1CCNCC1 [N-piperidine Ibrutinib (hydrochloride)] (10 µM)	0
CC(C)NC(=O)N1CC[C@H](NC2=Nc3cc(F)ccc3N(CC(F)F)c3ccc(Cl)cc32)C1 (10 µM)	0
O=C(Nc1cc(Oc2cc(F)c(NC(=O)C3(C(=O)Nc4ccc(F)cc4)CC3)cc2F)ccn1)C1CC1 [Altiratinib] (10 µM)	0
COCCOc1ccc(-c2cn(-c3ccccc3)c3nc[nH]c(=O)c23)cc1 (10 µM)	0
Cc1ccc2nc(NC(=O)CSc3nc4c(c(=O)n3-c3ccccc3)SCC4)sc2c1 (2 µM)	0
C[C@]1(O)CCC[C@@H]1n1c(=O)c(C(F)F)cc2cnc(NC3CCN(S(C)(=O)=O)CC3)nc21 (10 µM)	0
NC1(Cc2ccc(Cl)cc2)CCN(c2ncnc3[nH]ccc23)CC1 (10 µM)	0
O=C(O)c1cc(O)ccc1O [2,5-Dihydroxybenzoic acid] (10 µM)	0
C=C(CCC=C(C)C)[C@H]1CC[C@]2(C)[C@@H]1[C@H](O)C[C@@H]1[C@@]3(C)CC[C@H](O[C@@H]4O[C@H](CO)[C@@H](O)[C@H](O)[C@H]4O[C@@H]4O[C@H](CO)[C@@H](O)[C@H](O)[C@H]4O)C(C)(C)[C@@H]3CC[C@]12C [Ginsenoside Rk1] (10 µM)	0
CC(C)=CC[C@H](O)C1=CC(=O)c2c(O)ccc(O)c2C1=O [(-)-Alkannin] (2.5 µM)	0
N#Cc1c(-c2ccccc2)cc(-c2cc(Br)ccc2O)[nH]c1=O (10 µM)	0
CCn1c(-c2nonc2N)nc2cnc(Oc3cccc(NC(=O)c4ccc(OCCN5CCOCC5)cc4)c3)cc21 (10 µM)	0
CO[C@H]1C[C@@H]2CC[C@@H](C)[C@@](O)(O2)C(=O)C(=O)N2CCCC[C@H]2C(=O)O[C@H]([C@H](C)C[C@@H]2CC[C@@H](O)[C@H](OC)C2)CC(=O)[C@H](C)/C=C(\C)[C@@H](O)[C@@H](OC)C(=O)[C@H](C)C[C@H](C)/C=C/C=C/C=C/1C [Rapamycin] (10 µM)	0
CC(C)=CCC[C@](C)(O[C@@H]1O[C@H](CO)[C@@H](O)[C@H](O)[C@H]1O)[C@H]1CC[C@]2(C)[C@@H]1[C@H](O)C[C@@H]1[C@@]3(C)CC[C@H](O)C(C)(C)[C@@H]3[C@@H](O[C@@H]3O[C@H](CO)[C@@H](O)[C@H](O)[C@H]3O[C@@H]3O[C@@H](C)[C@H](O)[C@@H](O)[C@H]3O)C[C@]12C [Ginsenoside Re] (10 µM)	0
Cn1c(=O)c(F)c(Nc2ccc(I)cc2F)c2c(=O)n(C[C@@H](O)CO)cnc21 (10 µM)	0
